{"sequences": {"note": "Chains of the proteins cited; added tags and fusions are not shown. Lines headed by an entry give the natural chain unless they say otherwise; changes in a name come on top.", "UniProt P40337": "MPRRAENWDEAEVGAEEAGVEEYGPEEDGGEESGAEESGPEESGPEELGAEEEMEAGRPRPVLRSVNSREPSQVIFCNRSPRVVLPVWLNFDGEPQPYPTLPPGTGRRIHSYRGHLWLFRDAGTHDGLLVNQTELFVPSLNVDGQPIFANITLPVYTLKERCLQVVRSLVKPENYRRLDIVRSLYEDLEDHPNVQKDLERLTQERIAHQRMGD"}, "source": "paper PMC10943020", "biological_target": "GST-VHL Y111H (human) (UniProt P40337)", "test": "pull-down; GST or GST-fused VHL (100 ng) on glutathione agarose beads with Flag/Strep-tagged proteins purified from 293T cells (methods: 200 ng/sample); 50 mM Tris-HCl pH 7.5, 1% Triton X-100, 150 mM NaCl, 1 mM DTT, 0.5 mM EDTA; four washes; immunoblot; both purified", "note": "These are yes or no findings as the source states them, for the method shown.", "data": [{"substance": "Flag/strep-Beclin1 (from UniProt Q14457 1-450)", "values": [{"measurement": "binding", "result": "no binding"}]}]}
